Reference: PubChem BioAssay AID1159542 (Gurdon Institute, 2015)
Here is an unselected part of 44 reagents. 9 of them (20%) were called active. 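Means of three or more experiments; every active call is a decrease, none for increased end-joining.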 No sequences are given here.

Aim: 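Ubiquitin E2 enzymes whose loss alters error-prone end-joining of DNA breaks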
Cell system: human U2OS cells with a traffic light reporter
Reagent: siRNA against human genes, about 60 nM siRNA
Timing: about 72 h
Challenge: I-SceI nuclease and repair donor plasmids transfected 8 h after siRNA to cut the reporter
Measurement: 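Share of mCherry-positive cells by flow cytometry after nuclease and donor transfection, as a ratio to luciferase non-targeting siRNA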
Reading the numbers: mutagenic end-joining vs control, mean: higher = more mutagenic end-joining than control
Hit rule: 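Active if the mean value relative to control falls under 0.6 or rises over 1.4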

| target gene | mutagenic end-joining vs control, mean | Outcome |
| --- | --- | --- |
| UBE2NL (ubiquitin conjugating enzyme E2 N like (gene/pseudogene)) | 0.744 | inactive |
| UBE2H (ubiquitin conjugating enzyme E2 H) | 0.673 | inactive |
| UBE2E1 (ubiquitin conjugating enzyme E2 E1) | 0.94 | inactive |
| UBE2R2 (ubiquitin conjugating enzyme E2 R2) | 0.337 | active |
| BIRC6 (baculoviral IAP repeat containing 6) | 0.756 | inactive |
| UBE2G2 (ubiquitin conjugating enzyme E2 G2) | 0.758 | inactive |
| UBE2S (ubiquitin conjugating enzyme E2 S) | 0.989 | inactive |
| UBE2M (ubiquitin conjugating enzyme E2 M) | 1.05 | inactive |
| UBE2Z (ubiquitin conjugating enzyme E2 Z) | 0.781 | inactive |
| UBE2Q1 (ubiquitin conjugating enzyme E2 Q1) | 1.06 | inactive |
| UBE2J1 (ubiquitin conjugating enzyme E2 J1) | 0.566 | active |
